In article PMC3629208:
No constants are given. Whether binding was seen depends on the method and setting. In cells and extracts the contact can be indirect. Some binding calls cover weakened binding; strength is not graded here.

Amino acid sequences for entries named in this document (tags omitted).
UniProt P31750: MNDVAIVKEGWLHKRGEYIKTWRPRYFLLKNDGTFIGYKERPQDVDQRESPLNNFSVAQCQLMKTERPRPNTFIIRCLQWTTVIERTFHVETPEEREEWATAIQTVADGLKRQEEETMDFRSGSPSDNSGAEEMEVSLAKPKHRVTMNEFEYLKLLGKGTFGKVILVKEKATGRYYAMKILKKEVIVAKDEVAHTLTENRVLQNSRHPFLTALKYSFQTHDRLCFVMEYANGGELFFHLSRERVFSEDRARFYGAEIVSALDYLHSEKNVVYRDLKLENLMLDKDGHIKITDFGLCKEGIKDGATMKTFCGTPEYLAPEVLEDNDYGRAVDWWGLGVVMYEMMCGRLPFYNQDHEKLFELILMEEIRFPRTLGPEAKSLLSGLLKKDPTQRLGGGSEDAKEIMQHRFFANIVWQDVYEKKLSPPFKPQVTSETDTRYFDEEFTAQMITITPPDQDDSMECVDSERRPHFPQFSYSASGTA

Key:
[1] = target: Akt (protein kinase B), Akt1 (mouse (endogenous in Neuro 2A)) (UniProt P31750); assay: co-IP; anti-Akt antibody fixed on the beads by DSS, without DSP-crosslinking, Neuro 2A lysate (control or IGF-stimulated), western blot
[2] = target: Akt (protein kinase B), Akt1 (mouse (endogenous in Neuro 2A)) (UniProt P31750); assay: co-IP; two-step crosslinking co-IP (DSS-fixed anti-Akt antibody, DSP-crosslinking of the bound complexes) from Neuro 2A lysate, western blot; cells with or without IGF-1 (10 ng/mL, 10 min); band intensity normalized to Akt level
[3] = target: Akt (protein kinase B), Akt1 (mouse (endogenous in Neuro 2A)) (UniProt P31750); assay: co-IP; anti-Akt antibody fixed on the beads by DSS, without DSP-crosslinking, Neuro 2A lysate (control or IGF-stimulated), western blot; remark: listed apart in the source

B1: ErbB3 binding protein 1 (EBP1, also called proliferation-associated protein 2G4) (protein, UniProt P50580 1-394)
chain: MSGEDEQQEQTIAEDLVVTKYKMGGDIANRVLRSLVEASSSGVSVLSLCEKGDAMIMEETGKIFKKEKEMKKGIAFPTSISVNNCVCHFSPLKSDQDYILKEGDLVKIDLGVHVDGFIANVAHTFVIGVAQGTQVTGRKADVIKAAHLCAEAALRLVKPGNQNTQVTEAWNKVAHSFNCTPIEGMLSHQLKQHVIDGEKTIIQNPTDQQKKDHEKAEFEVHEVYAVDVLVSSGEGKAKDAGQRTTIYKRDPSKQYGLKMKTSRAFFSEVERRFDAMPFTLRAFEDEKKARMGVVECAKHELLQPFNVLYEKEGEFVAQFKFTVLLMPNGPMRITSGPFEPDLYKSEMEVQDAELKALLQSSASRKTQKKKKKKASKTVENATSGETLEENGAGD
- binding [1]: binds weakly
- binding [2]: binds
- binding [3]: no binding (condition: without DSP-crosslinking)
